± gives the standard deviation of the averaged measurements. Most values lie at the level of the controls, where differences are scatter.
Columns and labels:
Assay in all cases: level (log10 ratio to DMSO vehicle control); higher = higher biomarker level / cell amount than vehicle control
[1] = compound: C=CC(=O)OCCC(F)(F)C(F)(F)C(F)(F)C(F)(F)C(F)(F)C(F)(F)C(F)(F)C(F)(F)F [8:2 Fluorotelomer acrylate]; settings: 2200 nM; in DMSO
Description: (§1)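 BioMAP Diversity Plus panel of 12 human primary cell co-culture systems (3C, 4H, LPS, SAg, BT, BF4T, BE3C, CASM3C, HDF3CGF, KF3CT, MyoF, Mphg). Compounds were added 1 h before stimulation and left for 24 h (MyoF 48 h; BT 72 h for soluble read-outs or 6 d for IgG). Biomarkers were read by ELISA, cytotoxicity by SRB, PBMC viability and proliferation by Alamar Blue. Each well value was divided by the mean of 8 DMSO control wells on the same plate and log10 transformed; duplicate blinded samples were tested at 4 concentrations.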

[2] = compound: OCCCC(F)(F)C(F)(F)C(F)(F)C(F)(F)C(F)(F)C(F)(F)C(F)(F)F [7:3 Fluorotelomer alcohol]; settings: 2200 nM; in DMSO
Description: as §1

[3] = compound: O=S(=O)(O)C(F)(F)C(F)(F)C(F)(F)C(F)(F)C(F)(F)C(F)(F)F [Perfluorohexanesulfonic acid]; settings: 2200 nM; in DMSO
Description: as §1

Perfluoro-1-iodohexane = compound: FC(F)(F)C(F)(F)C(F)(F)C(F)(F)C(F)(F)C(F)(F)I [Perfluoro-1-iodohexane]; settings: in DMSO
Description: as §1

[4] = compound: O=C(O)C(F)(F)C(F)(F)C(F)(F)C(F)(F)C(F)(F)C(F)(F)C(F)(F)C(F)(F)C(F)(F)C(F)(F)C(F)(F)C(F)(F)C(F)(F)F [Perfluorotetradecanoic acid]; settings: in DMSO
Description: as §1

[5] = compound: FC(F)(I)C(F)(F)C(F)(F)C(F)(F)C(F)(F)C(F)(F)I [1,6-Diiodoperfluorohexane]; settings: 2200 nM; in DMSO
Description: as §1

[6] = compound: C=CC(=O)OCC(F)(F)C(F)(F)C(F)(F)COC(=O)C=C [1H,1H,5H,5H-Perfluoro-1,5-pentanediol diacrylate]; settings: 2200 nM; in DMSO
Description: as §1

[7] = compound: C=CC(=O)OCCC(F)(F)C(F)(F)C(F)(F)C(F)(F)F [2-(Perfluorobutyl)ethyl acrylate]; settings: 2200 nM; in DMSO
Description: as §1

Hexafluoroamylene glycol = compound: OCC(F)(F)C(F)(F)C(F)(F)CO [Hexafluoroamylene glycol]; settings: 2200 nM; in DMSO
Description: as §1

[8] = compound: FC(F)(F)C(F)(C(F)(F)F)C(F)(F)C(F)(F)CC1CO1 [3-(Perfluoro-3-methylbutyl)-1,2-propenoxide]; settings: in DMSO
Description: as §1

[9] = compound: O=S(=O)(O)CCC(F)(F)C(F)(F)C(F)(F)C(F)(F)F [4:2 Fluorotelomer sulfonic acid]; settings: 2200 nM; in DMSO
Description: as §1

[10] = compound: O=C(O)C=C(C(F)(F)F)C(F)(F)F [3,3-Bis(trifluoromethyl)-2-propenoic acid]; settings: in DMSO
Description: as §1

[11] = compound: O=C(Cl)C(F)(F)C(F)(F)C(F)(F)C(=O)Cl [Hexafluoroglutaryl chloride]; settings: 2200 nM; in DMSO
Description: as §1

Test System | level (log10) [1] | level (log10) [2] | level (log10) [3] | level (log10) (Perfluoro-1-iodohexane; 2200 nM) | level (log10) (Perfluoro-1-iodohexane; 6700 nM) | level (log10) (Perfluoro-1-iodohexane; 20000 nM) | level (log10) (Perfluoro-1-iodohexane; 60000 nM) | level (log10) ([4]; 740 nM) | level (log10) ([4]; 2200 nM) | level (log10) [5] | level (log10) [6] | level (log10) [7] | level (log10) (Hexafluoroamylene glycol) | level (log10) ([8]; 740 nM) | level (log10) ([8]; 2200 nM) | level (log10) [9] | level (log10) ([10]; 2200 nM) | level (log10) ([10]; 6700 nM) | level (log10) ([10]; 20000 nM) | level (log10) ([10]; 60000 nM) | level (log10) [11]
HDF3CGF:CXCL9/MIG | -0.0035 ± 0.00071 | -0.002 ± 0.041 | 0.0055 ± 0.026 | -0.01 ± 0.014 | 0 ± 0.0028 | -0.021 ± 0.0057 | -0.0325 ± 0.018 | 0.027 ± 0.02 | 0.028 ± 0.016 | -0.0005 ± 0.011 | -0.663 ± 0.1 | 0.0045 ± 0.011 | 0.0015 ± 0.018 | 0.007 ± 0.037 | 0.008 ± 0.0042 | -0.0095 ± 0.019 | -0.0115 ± 0.0078 | -0.006 ± 0.0028 | -0.0075 ± 0.013 | -0.0175 ± 0.015 | 0.002 ± 0.011
SAg:CD38 | -0.005 ± 0.0042 | 0.0485 ± 0.059 | 0.003 ± 0.045 | -0.0145 ± 0.13 | -0.059 ± 0.15 | -0.01 ± 0.02 | 0.0005 ± 0.076 | -0.005 ± 0.023 | -0.039 ± 0.045 | 0.0165 ± 0.029 | 0.0175 ± 0.053 | 0.016 ± 0.059 | 0.0085 ± 0.035 | 0.0115 ± 0.012 | -0.0015 ± 0.012 | 0.022 ± 0.023 | 0.0035 ± 0.0078 | 0.0025 ± 0.013 | -0.019 ± 0.017 | -0.073 ± 0.0028 | -0.024 ± 0.055
BT:B cell Proliferation | 0.021 ± 0.0071 | 0.0225 ± 0.0078 | -0.0025 ± 0.039 | 0.003 ± 0.031 | -0.011 ± 0.054 | -0.008 ± 0.011 | -0.0135 ± 0.025 | -0.011 ± 0.0099 | -0.0015 ± 0.0078 | -0.009 ± 0.025 | -0.031 ± 0.035 | 0.008 ± 0.013 | 0.0055 ± 0.0064 | 0.0135 ± 0.016 | -0.026 ± 0.0085 | 0.058 ± 0.0057 | -0.0005 ± 0.026 | -0.0145 ± 0.0021 | -0.0385 ± 0.0035 | -0.121 ± 0.0064 | 0.0105 ± 0.0092
CASM3C:CD106/VCAM-1 | -0.0335 ± 0.018 | 0.008 ± 0.027 | -0.02 ± 0.031 | 0.011 ± 0.0071 | 0.003 ± 0.017 | -0.003 ± 0.025 | -0.023 ± 0.041 | 0.011 ± 0.025 | -0.0335 ± 0.028 | -0.0265 ± 0.06 | -0.023 ± 0.03 | -0.028 ± 0.0099 | 0.003 ± 0.0014 | -0.025 ± 0.017 | -0.016 ± 0.0057 | 0.007 ± 0.016 | -0.0745 ± 0.026 | -0.152 ± 0.012 | -0.216 ± 0.021 | -0.284 ± 0.054 | -0.0245 ± 0.016
3C:CXCL8/IL-8 | 0.0235 ± 0.061 | 0.014 ± 0.034 | -0.0065 ± 0.018 | 0.0055 ± 0.012 | -0.014 ± 0.064 | -0.01 ± 0.065 | 0.0365 ± 0.079 | 0.0075 ± 0.037 | -0.019 ± 0.011 | 0.023 ± 0.033 | 0.018 ± 0.03 | -0.006 ± 0.04 | -0.006 ± 0.1 | 0.001 ± 0.018 | -0.0095 ± 0.015 | 0.016 ± 0.016 | 0.032 ± 0.038 | 0.038 ± 0.02 | 0.0255 ± 0.04 | 0.061 ± 0.071 | 0.033 ± 0.027
LPS:IL-1alpha | 0.0155 ± 0.019 | -0.015 ± 0.033 | 0.0115 ± 0.043 | -0.0265 ± 0.028 | -0.048 ± 0.035 | -0.042 ± 0.021 | -0.004 ± 0.0014 | 0.018 ± 0.047 | -0.017 ± 0.048 | 0.037 ± 0.0085 | -0.007 ± 0.023 | 0.002 | 0.0365 ± 0.012 | 0.0085 ± 0.0064 | -0.0135 ± 0.025 | 0.0235 ± 0.022 | -0.0425 ± 0.0021 | -0.0355 ± 0.015 | -0.0495 ± 0.023 | -0.095 ± 0.02 | -0.022 ± 0.047
BE3C:CD87/uPAR | 0.0425 ± 0.013 | 0.025 ± 0.017 | 0.0105 ± 0.013 | 0.017 ± 0.033 | 0.0165 ± 0.018 | 0.0035 ± 0.00071 | 0.0465 ± 0.026 | 0.0115 ± 0.0064 | 0.0135 ± 0.00071 | 0.016 ± 0.059 | 0.013 ± 0.025 | 0.008 ± 0.025 | 0.001 ± 0.0028 | 0.0175 ± 0.012 | -0.0015 ± 0.012 | 0.015 ± 0.048 | -0.0085 ± 0.044 | -0.0365 ± 0.025 | -0.0635 ± 0.013 | -0.012 ± 0.013 | 0.0175 ± 0.021
4H:CCL26/Eotaxin-3 | 0.0565 ± 0.03 | 0.0105 ± 0.00071 | -0.0245 ± 0.00071 | 0.0005 ± 0.011 | 0.014 ± 0.013 | 0.016 ± 0.017 | 0.016 ± 0.021 | -0.0025 ± 0.016 | -0.053 ± 0.05 | 0.0105 ± 0.016 | -0.0605 ± 0.025 | -0.0045 ± 0.043 | 0.058 ± 0.033 | 0.019 ± 0.018 | 0.006 | -0.0035 ± 0.049 | -0.0075 ± 0.09 | -0.02 ± 0.044 | -0.042 ± 0.0042 | -0.121 ± 0.0064 | -0.009 ± 0.045
HDF3CGF:CD106/VCAM-1 | -0.012 ± 0.027 | -0.062 ± 0.058 | -0.0215 ± 0.0035 | -0.0545 ± 0.04 | -0.027 ± 0.024 | -0.032 ± 0.014 | -0.405 ± 0.44 | -0.027 ± 0.05 | 0.0015 ± 0.0078 | -0.069 ± 0.011 | -0.256 ± 0.087 | -0.0305 ± 0.0035 | 0.0165 ± 0.11 | 0.0095 ± 0.012 | 0.0075 ± 0.021 | 0.019 ± 0.037 | -0.0375 ± 0.03 | -0.0485 ± 0.021 | -0.0795 ± 0.005 | -0.17 ± 0.013 | -0.001 ± 0.016
BT:sIL-17F | 0.025 ± 0.098 | 0.035 ± 0.098 | -0.0895 ± 0.1 | -0.012 ± 0.016 | 0.0035 ± 0.015 | 0.041 ± 0.12 | 0.0815 ± 0.061 | -0.0035 ± 0.033 | 0.051 ± 0.089 | 0.0515 ± 0.087 | -0.399 ± 0.12 | -0.099 ± 0.058 | -0.035 ± 0.0071 | -0.0545 ± 0.057 | 0.0525 ± 0.07 | -0.0075 ± 0.047 | -0.146 ± 0.15 | -0.258 ± 0.031 | -0.426 ± 0.16 | -0.672 ± 0.021 | 0.031 ± 0.1
LPS:CD106/VCAM-1 | -0.0165 ± 0.016 | -0.0485 ± 0.021 | -0.007 ± 0.0042 | -0.039 ± 0.0071 | -0.031 ± 0.0057 | -0.0145 ± 0.018 | -0.029 ± 0.0028 | 0.0275 ± 0.013 | -0.0045 ± 0.036 | -0.0215 ± 0.023 | -0.0215 ± 0.0064 | -0.016 ± 0.025 | -0.003 ± 0.068 | -0.001 ± 0.0085 | -0.004 ± 0.011 | 0.0195 ± 0.012 | -0.0635 ± 0.032 | -0.106 ± 0.021 | -0.141 ± 0.018 | -0.244 ± 0.069 | -0.004 ± 0.02
BE3C:CXCL10/IP-10 | -0.011 ± 0.011 | 0.041 ± 0.016 | 0.0155 ± 0.0035 | 0.033 ± 0.014 | 0.013 ± 0.018 | 0.0135 ± 0.0078 | 0.0355 ± 0.022 | 0.022 ± 0.0014 | 0.0145 ± 0.0064 | 0.0095 ± 0.00071 | -0.0105 ± 0.0078 | -0.001 ± 0.0057 | -0.003 ± 0.013 | 0.0065 ± 0.015 | -0.0075 ± 0.0064 | 0.002 ± 0.0028 | -0.0145 ± 0.028 | -0.022 ± 0.027 | -0.0195 ± 0.026 | -0.0295 ± 0.00071 | 0.0415 ± 0.015
CASM3C:PAI-I | -0.0045 ± 0.0078 | -0.0065 ± 0.00071 | 0.004 ± 0.0099 | -0.0005 ± 0.00071 | -0.003 ± 0.0071 | -0.007 ± 0.0014 | -0.003 ± 0.0028 | 0.007 ± 0.0028 | 0.012 ± 0.0085 | -0.002 ± 0.0014 | 0.0045 ± 0.0078 | 0 ± 0.023 | -0.004 ± 0.014 | -0.006 ± 0.017 | -0.004 ± 0.0057 | -0.0085 ± 0.0021 | -0.006 ± 0.017 | -0.0115 ± 0.012 | -0.019 ± 0.0057 | -0.0145 ± 0.012 | -0.0085 ± 0.0021

Random excerpt: two entries already listed, in no set order.
Test System | level (log10) [1] | level (log10) [2] | level (log10) [3] | level (log10) (Perfluoro-1-iodohexane; 2200 nM) | level (log10) (Perfluoro-1-iodohexane; 6700 nM) | level (log10) (Perfluoro-1-iodohexane; 20000 nM) | level (log10) (Perfluoro-1-iodohexane; 60000 nM) | level (log10) ([4]; 740 nM) | level (log10) ([4]; 2200 nM) | level (log10) [5] | level (log10) [6] | level (log10) [7] | level (log10) (Hexafluoroamylene glycol) | level (log10) ([8]; 740 nM) | level (log10) ([8]; 2200 nM) | level (log10) [9] | level (log10) ([10]; 2200 nM) | level (log10) ([10]; 6700 nM) | level (log10) ([10]; 20000 nM) | level (log10) ([10]; 60000 nM) | level (log10) [11]
CASM3C:CD106/VCAM-1 | -0.0335 ± 0.018 | 0.008 ± 0.027 | -0.02 ± 0.031 | 0.011 ± 0.0071 | 0.003 ± 0.017 | -0.003 ± 0.025 | -0.023 ± 0.041 | 0.011 ± 0.025 | -0.0335 ± 0.028 | -0.0265 ± 0.06 | -0.023 ± 0.03 | -0.028 ± 0.0099 | 0.003 ± 0.0014 | -0.025 ± 0.017 | -0.016 ± 0.0057 | 0.007 ± 0.016 | -0.0745 ± 0.026 | -0.152 ± 0.012 | -0.216 ± 0.021 | -0.284 ± 0.054 | -0.0245 ± 0.016
4H:CCL26/Eotaxin-3 | 0.0565 ± 0.03 | 0.0105 ± 0.00071 | -0.0245 ± 0.00071 | 0.0005 ± 0.011 | 0.014 ± 0.013 | 0.016 ± 0.017 | 0.016 ± 0.021 | -0.0025 ± 0.016 | -0.053 ± 0.05 | 0.0105 ± 0.016 | -0.0605 ± 0.025 | -0.0045 ± 0.043 | 0.058 ± 0.033 | 0.019 ± 0.018 | 0.006 | -0.0035 ± 0.049 | -0.0075 ± 0.09 | -0.02 ± 0.044 | -0.042 ± 0.0042 | -0.121 ± 0.0064 | -0.009 ± 0.045
